# Earlier results in US20100041647A1, “3-Substituted-[1,2,3]-Benzotriazinone compounds for enhancing glutamatergic synaptic responses” (CORTEX PHARMACEUTICALS, INC., priority 2007, published 2010).
# At least one compound was matched to its structure with a doubt left.
# System: AMPA receptors
# Conditions: works only at high concentrations; cited from earlier work
smiles,measurement,value
"COc1ccc(C(=O)N2CCCC2=O)cc1 [Aniracetam, N-anisoyl-2-pyrrolidinone]",concentration at which the drug works,approx. 1000 μM
